According to PubChem BioAssay AID743266 (National Center for Advancing Translational Sciences (NCATS), 2014):
In all, about 410,000 compounds went through this assay and about 310 (0.076%) were called active. Inconclusive results, whose numbers are uncertain, are shown with a selection of clear calls. The call rests on the fitted dose curve; in most records, active means well fitted activation curve with a large enough effect; inconclusive means small, poorly fitted or top-dose-only effect, or another doubt; inactive means no such curve, though single readings can be large or run the other way. Potencies of inconclusive entries are doubtful fits and often do not repeat.

Chains of the proteins cited; added tags and fusions are not shown. Lines headed by an entry give the natural chain unless they say otherwise; changes in a name come on top.
UniProt Q03431: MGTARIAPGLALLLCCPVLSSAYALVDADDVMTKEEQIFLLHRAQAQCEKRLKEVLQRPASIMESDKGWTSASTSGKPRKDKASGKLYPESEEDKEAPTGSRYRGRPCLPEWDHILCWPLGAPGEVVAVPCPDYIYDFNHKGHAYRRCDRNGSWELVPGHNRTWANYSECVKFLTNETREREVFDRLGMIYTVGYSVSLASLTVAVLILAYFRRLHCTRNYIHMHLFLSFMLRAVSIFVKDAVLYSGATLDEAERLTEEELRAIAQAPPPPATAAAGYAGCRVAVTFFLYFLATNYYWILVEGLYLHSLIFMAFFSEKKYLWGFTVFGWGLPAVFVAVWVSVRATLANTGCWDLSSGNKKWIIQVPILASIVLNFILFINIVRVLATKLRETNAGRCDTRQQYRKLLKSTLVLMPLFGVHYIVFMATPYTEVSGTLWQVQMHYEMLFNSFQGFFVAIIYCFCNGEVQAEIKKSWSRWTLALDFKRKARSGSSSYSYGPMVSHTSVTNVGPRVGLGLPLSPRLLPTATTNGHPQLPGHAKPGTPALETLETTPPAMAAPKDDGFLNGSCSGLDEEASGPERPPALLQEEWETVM

molecular target: Parathyroid hormone/parathyroid hormone-related peptide receptor (Homo sapiens) (UniProt Q03431); experiment: qHTS for PTHR1 Agonists: Primary Screen; details: HEK293 GP2 PTHR1 cells, GloSensor cAMP luminescence, 1 h; activation: at 115 µM (top of the series) unless noted; series mostly up to 115 µM; further: nearly all actives have a fitted effect of over 55% in size
Text: The goal of the proposed studies is to discover new compounds that act as potent agonists on the parathyroid hormone receptor type-1 (PTHR1). The PTHR1 plays critical roles in maintaining blood calcium and phosphate levels, as well as in controlling bone remodeling. PTHR1 agonists could thus be useful for treating diseases such as hypoparathyroidism and osteoporosis. In the former disease, an agonist drug would help maintain normal blood calcium and phosphate levels under conditions of parathyroid hormone deficiency. In the latter disease, an agonist drug would stimulate new bone formation and thus reduce the risk of fracture, under conditions of bone fragility, as occurs in aging.
To that end, we performed a quantitative high-throughput screening (qHTS) of the Molecular Libraries Probe Centers Network (MLPCN) compound libraries at the NIH Chemical Genomics Center (NCGC) for the parathyroid hormone receptor type-1 (PTHR1) using a unique HEK-293-derived cell line (GP2) that expresses the PTHR1 and a glosensor cAMP reporter construct.
NIH Molecular Libraries Probe Production Centers Network [MLPCN]
NIH Chemical Genomics Center [NCGC]
Assay Submitter (PI): Thomas Gardella, Massachusetts General Hospital
4 microL are dispensed into a 1536-well micro plate to yield 3,000 cells/well. The plates are then incubated overnight, after which 4 microL of 0.5 mM of BIoTium Luciferin plus 0.5 mM IBMX are added. They are then incubated at 37 degree for one hour before 23 nL of compounds are added through pinning and then incubated at 37 degree again for another hour. After the plates are kept at room temperature for 15 min before they are read on the ViewLux to measure luminescence.
Potency means the concentration at half of the fitted maximal effect.

Structure (SMILES) | activation | Potency
CN1CCN(Cc2c(O)ccc3cc(-c4ccc(Cl)cc4)c(=O)oc23)CC1 | inconclusive: 37.1% [activator] | 
COC(=O)c1c(C)[nH]c(C(=O)OC(C)C(=O)N2CCOCC2)c1C (stereo unspecified) |  | inactive
COc1cc(CCC(=O)Nc2cnc3ccccc3c2)cc(OC)c1OC |  | inactive
CC(C)c1ccc(NC(=O)N2CCC(c3nc4ccccc4o3)CC2)cc1 |  | inconclusive: 1.78 µM [activator, single point]
C=CCNC(=O)COC(=O)c1ccc(Cl)c(S(N)(=O)=O)c1 | inconclusive: 38.3% [activator] | 
Cc1ccc(Cc2c(C3CCCCC3)nc3c(C)cc(Br)cn23)cc1 |  | inconclusive: 0.767 µM [activator, full curve]
O=C(CCc1ccccc1)NNC(=O)C1CCCCC1 |  | inconclusive: 2.24 µM [activator, partial curve, poor fit]
CC1CCN(S(=O)(=O)c2ccc3c(c2)oc(=O)n3CC(=O)O)CC1 |  | inconclusive: 35.5 µM [activator, single point]
CCOC(=O)c1c(NC(C)=O)c2c3c(sc2n1Cc1nc(-c2ccccc2Cl)oc1C)CCCC3 |  | inconclusive: 126 µM [activator, single point]
COc1ccc(NS(=O)(=O)c2ccc3c(c2)NC(=O)CC(=O)N3)cc1OC | inconclusive: 31.4% [activator] | 
COc1ccc2c(c1)c1c(c(=O)n(Cc3ccccc3)c(=O)n1CC(=O)NCc1ccccc1)n2C |  | inconclusive: 5.01 µM [activator, full curve, poor fit]
C=CCSc1nc2[nH]ncc2c(=O)[nH]1 |  | inconclusive: 141 µM [activator, single point]
Fc1ccc(OCCCCCN2CCCC2)cc1 | inconclusive: 11.6% [activator] [at 57.5 µM] | 
Cc1nnc(-c2cnn(-c3ccccc3)c2N)n1Cc1cccc(C(F)(F)F)c1 |  | inconclusive: 44.7 µM [activator, single point]
O=C(COc1ccc2c3c(c(=O)oc2c1)CCCC3)NC(Cc1ccc(Cl)cc1)C(=O)O (stereo unspecified) |  | inconclusive: 44.7 µM [activator, single point]
CC1Cc2cc(S(=O)(=O)CCC(=O)NCc3ccccc3Cl)ccc2N1C(=O)C1CC1 (stereo unspecified) |  | inactive
Cc1cccc(C)c1NC(=O)C(NC(=O)c1ccccn1)c1ccc([N+](=O)[O-])cc1 (stereo unspecified) |  | inconclusive: 31.6 µM [activator, single point]
CCN(CC(=O)NCc1ccc(F)cc1)C(=O)C1CC1C (stereo unspecified) | inconclusive: 69.3% [activator] | 
COc1ccccc1CN1CCN(Cc2nc(Cc3ccccc3)no2)CC1 | inconclusive: 36.2% [activator] | 
Cc1cc(NC(=O)COn2nnc3ccccc32)no1 |  | inconclusive: 5.62 µM [activator, full curve, poor fit]
O=C(CCc1nnc(Cc2ccc3c(c2)OCO3)o1)NCCc1ccccc1Cl |  | inconclusive: 158 µM [activator, partial curve, poor fit]
NNC(=O)c1cc2c(ccc3ccccc32)o1 |  | inconclusive: 141 µM [activator, single point]
Nc1nc(N)c2c(n1)CN(Cc1ccc(Cl)cc1)C2 |  | inactive
CCCCCC1=NN2C(=O)CC(=O)N=C2S1 | inconclusive: 58.3% [activator] | 

Structure (SMILES) | activation | Potency
COc1cccc(CN2CCN(CC#Cc3ccccc3)CC2CCO)c1 (stereo unspecified) |  | inconclusive: 126 µM [activator, single point]
Cc1cc(Br)c(NC(=O)C(C)Sc2nnnn2C)c(Br)c1 (stereo unspecified) |  | inactive
COc1ccc(CCNC(=O)c2c(C)oc3ncn(CC(C)C)c(=O)c23)c(OC)c1 |  | inactive
O=C(N[C@H]1CCC(=O)N([C@H](CSc2ccccc2)Cc2ccccc2)CC1)OCc1ccccc1 |  | inactive
CN1CCN(c2nc(Nc3ccccc3)nc(N)c2[N+](=O)[O-])CC1 |  | inactive
CC(=O)c1sc(NC(=O)CCS(=O)(=O)c2ccccc2)nc1C | inconclusive: 51.4% [activator] | 
Cc1ccc(CN2CCC(C)(Oc3cccc(Cl)c3)C2)cc1 (stereo unspecified) |  | inconclusive: 89.1 µM [activator, single point]
O=C1Nc2cc(C(=O)NCCCN3CCOCC3)ccc2S/C1=C/c1cccc(Cl)c1 |  | inactive
CC(C)C(=O)N(Cc1ccccc1)c1ccccn1 |  | inconclusive: 39.8 µM [activator, single point]
O=C(N/N=C/c1cccs1)c1[nH]ncc1Br |  | inactive
COc1ccccc1-n1c(=S)[nH]c2c(sc(=S)n2-c2ccccc2C)c1=O |  | inconclusive: 7.08 µM [activator, full curve, poor fit]
N#Cc1ccccc1OCCCNC1CCCC1 |  | inactive
CN1CCN(C(CNC(=O)c2cccc(F)c2)c2ccc3c(c2)OCO3)CC1 (stereo unspecified) | inconclusive: 41.5% [activator] | 
Cc1ccc(C)c(OCCCNC2CCCC2)c1C |  | inconclusive: 89.1 µM [activator, partial curve, poor fit]
Nc1ncc(-c2ccc(F)cc2)nc1N1CCN(CCO)CC1 |  | inactive
O=C1NCCC/C1=N/Nc1ccc(F)cc1 | inconclusive: 53.3% [activator] | 
O=C(NCC(=O)N(c1ccc(F)cc1)C(C(=O)NC1CCCC1)c1cccnc1)c1ccco1 (stereo unspecified) |  | inconclusive: 141 µM [activator, single point]
COCCn1c(C)cc(C(=O)CSc2nnc(-c3cccnc3)n2-c2ccccc2F)c1C |  | inactive
Cc1cc(C)c(Cn2c3ccccc3c3cnn(CC(=O)NC4CCC(C)CC4)c(=O)c32)c(C)c1 (stereo unspecified) |  | inconclusive: 5.62 µM [activator, partial curve]
COc1cc(OC)cc(C(=O)Nc2cccc3c2CCCC3)c1 |  | inconclusive: 1.36 µM [activator, full curve]
O=C(Nc1ccc(F)cc1)c1sccc1SCc1cccc(C(F)(F)F)c1 |  | inconclusive: 15.8 µM [activator, partial curve, poor fit]
CCN(CC(=O)NCc1cccs1)C(=O)c1cccc(Cl)c1 |  | inconclusive: 11.2 µM [activator, partial curve, poor fit]
COc1ccc(-c2cc(C(=O)NCc3cc(OC)c(OC)c(OC)c3)[nH]n2)cc1 |  | inconclusive: 11.2 µM [activator, full curve]
CCN(C(=S)Nc1cccc2ccccc12)c1ccccc1 | inconclusive: 35.8% [activator] | 

Structure (SMILES) | activation | Potency
COc1ccccc1N(CC(=O)N/N=C/c1ccccc1C(=O)O)S(C)(=O)=O |  | inconclusive: 112 µM [activator, single point]
CC(/C=C/c1ccccc1)=N/NC(=O)c1cccc(Br)c1 |  | inactive
Nc1ccc(CCCC(=O)NCc2cccnc2)cc1 |  | inactive
Cc1cccc(-n2c(C)cc(C=C3C(=O)c4ccccc4C3=O)c2C)c1 | inconclusive: -39.1% [activator] [at 57.5 µM] | 
O=C(COC(=O)CSc1ccc(Cl)cc1)Nc1ccccc1 |  | inconclusive: 100 µM [activator, single point]
COc1ccc(-c2ccc(C(=O)O)c(=O)[nH]2)cc1 |  | inconclusive: 141 µM [activator, single point]
COC(=O)CN(C#N)c1nc(OC)nc(N(C)C)n1 |  | inconclusive: 39.8 µM [activator, single point]
CS(=O)(=O)NCC(c1ccco1)N1CCN(c2ccccc2)CC1 (stereo unspecified) |  | inconclusive: 8.91 µM [activator, full curve, poor fit]
CCOc1ncccc1C(=O)N1CCCSC1=Nc1ccc(C(C)=O)cc1 |  | inconclusive: 14.1 µM [activator, partial curve, poor fit]
CN(C)C(CNC(=O)C1CCN(S(=O)(=O)c2ccccc2)CC1)c1ccccc1 (stereo unspecified) |  | inconclusive: 126 µM [activator, single point]
CCOC(=O)c1cc(NC(=O)COc2ccc([N+](=O)[O-])cc2)cc(C(=O)OCC)c1 |  | inconclusive: 126 µM [activator, single point]
O=C1CN(S(=O)(=O)c2cccc(C(=O)O)c2)c2ccccc2N1 |  | inconclusive: 44.7 µM [activator, partial curve, poor fit]
CCOC(=O)C1CCCN(C(=O)C2CCN(c3nnc(C)c4c(C)n(-c5ccccc5)nc34)CC2)C1 (stereo unspecified) |  | inconclusive: 112 µM [activator, single point]
CC(=O)OCC(=O)NCCCOc1cccc(CN2CCCCC2)c1 |  | inactive
Cc1cccc(S(=O)Cc2ccc(C(=O)NC3CCN(Cc4ccccc4)CC3)o2)c1 (stereo unspecified) |  | inactive
CN1c2cc(Cl)ccc2-c2nc(SCC(=O)Nc3ccc(F)cc3F)ncc2S1(=O)=O |  | inactive
Cc1ccc(-c2noc(CSc3nc(N)cc(N)n3)n2)cc1 |  | inactive
CC(C)Cc1nc2oc3c(=O)[nH]cnc3c2c2c1CCC2 |  | inconclusive: 35.5 µM [activator, single point]
CC1CC(C)(C)CC2(C1)NC(=S)N(c1ccccc1)N2 (stereo unspecified) |  | inactive
O=C(CSc1nnnn1-c1ccccc1)NCc1cccs1 | inconclusive: 181% [activator] [at 57.5 µM] | 
COc1ccc(/C=C2\C(=N)N3N=C(CC(=O)N4CCOCC4)SC3=NC2=O)cc1 |  | inconclusive: 44.7 µM [activator, partial curve, poor fit]
COc1ccc(C2=NOC(C(=O)NCc3cccs3)C2)cc1OC (stereo unspecified) |  | inconclusive: 2.51 µM [activator, partial curve, poor fit]
CN[C@H]1C[C@H]2c3[nH]c4ccc(-c5cccc(C)c5)cc4c3CCN2C[C@H]1[C@H](C)O |  | inactive

Exported as tab-separated lines: part of the list above.
Structure (SMILES)	activation	Potency
CN(C)C(CNC(=O)C1CCN(S(=O)(=O)c2ccccc2)CC1)c1ccccc1 (stereo unspecified)		inconclusive: 126 µM [activator, single point]
CCOC(=O)c1cc(NC(=O)COc2ccc([N+](=O)[O-])cc2)cc(C(=O)OCC)c1		inconclusive: 126 µM [activator, single point]
O=C1CN(S(=O)(=O)c2cccc(C(=O)O)c2)c2ccccc2N1		inconclusive: 44.7 µM [activator, partial curve, poor fit]
CCOC(=O)C1CCCN(C(=O)C2CCN(c3nnc(C)c4c(C)n(-c5ccccc5)nc34)CC2)C1 (stereo unspecified)		inconclusive: 112 µM [activator, single point]
CC(=O)OCC(=O)NCCCOc1cccc(CN2CCCCC2)c1		inactive
Cc1cccc(S(=O)Cc2ccc(C(=O)NC3CCN(Cc4ccccc4)CC3)o2)c1 (stereo unspecified)		inactive
CN1c2cc(Cl)ccc2-c2nc(SCC(=O)Nc3ccc(F)cc3F)ncc2S1(=O)=O		inactive
Cc1ccc(-c2noc(CSc3nc(N)cc(N)n3)n2)cc1		inactive
CC(C)Cc1nc2oc3c(=O)[nH]cnc3c2c2c1CCC2		inconclusive: 35.5 µM [activator, single point]
CC1CC(C)(C)CC2(C1)NC(=S)N(c1ccccc1)N2 (stereo unspecified)		inactive
O=C(CSc1nnnn1-c1ccccc1)NCc1cccs1	inconclusive: 181% [activator] [at 57.5 µM]	
COc1ccc(/C=C2\C(=N)N3N=C(CC(=O)N4CCOCC4)SC3=NC2=O)cc1		inconclusive: 44.7 µM [activator, partial curve, poor fit]
COc1ccc(C2=NOC(C(=O)NCc3cccs3)C2)cc1OC (stereo unspecified)		inconclusive: 2.51 µM [activator, partial curve, poor fit]
CN[C@H]1C[C@H]2c3[nH]c4ccc(-c5cccc(C)c5)cc4c3CCN2C[C@H]1[C@H](C)O		inactive
